This is one part of the list.

This test addresses T1, OsSMF1 (Oryza sativa, UniProt Q6ZLB0 1-436).
T1 sequence: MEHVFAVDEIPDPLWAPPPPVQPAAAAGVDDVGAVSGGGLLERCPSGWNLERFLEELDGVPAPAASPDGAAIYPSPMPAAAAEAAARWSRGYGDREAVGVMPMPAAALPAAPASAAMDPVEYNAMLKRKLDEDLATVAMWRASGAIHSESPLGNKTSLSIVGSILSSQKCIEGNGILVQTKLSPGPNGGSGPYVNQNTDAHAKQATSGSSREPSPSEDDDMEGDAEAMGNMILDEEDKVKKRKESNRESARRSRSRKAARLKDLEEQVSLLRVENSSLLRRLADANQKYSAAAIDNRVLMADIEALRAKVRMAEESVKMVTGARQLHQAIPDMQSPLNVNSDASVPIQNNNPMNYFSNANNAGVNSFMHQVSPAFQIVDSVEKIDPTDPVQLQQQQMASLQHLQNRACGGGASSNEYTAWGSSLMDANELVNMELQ
Kind of test: protein-binding microarray (RPBM); PBS, 2% BSA, 51.3 ng/ul salmon testes DNA, 50 uM zinc acetate, 200 nM TF, 25 C, 1 h; high values mean tight binding. Conditions: protein: recombinant; tags: N-terminal polyhistidine and DsRed monomer fusion (pET32a); chain copies: 2; label: CyDye5-dUTP incorporated in the synthesized complementary strand; 3' TTTTT single-stranded linker to array surface; dsDNA, one strand shown. In outline: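 Binding signal is reported as fluorescence intensity per feature (arbitrary units) from an Axon 4000B scanner. Incubation used 200 nM of each Ni–NTA-purified, N-terminally polyhistidine- and DsRed-fused transcription factor from E. coli BL21-CodonPlus on a double-stranded custom Agilent array for 1 h at 25 °C, with 50 µM zinc acetate in the buffer, followed by washing.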
As for “GGGCAGCCACCTCTCCTGGGTCCCCTCCACCTCCTCCTACCGGAGTCACCTAGTGCAG”, the binding signal was 24600 fluorescence intensity (a.u.).
As to “GGAAGCGGCTGCTGACAATGGGGATTAGATAGGCTAAGGGCGGAGTCACCTAGTGCAG”, the binding signal was 3700 fluorescence intensity (a.u.).
With “GCTCACGAGCCCCACGCCTCGATCCGTCCATACAGCGACGCGGAGTCACCTAGTGCAG”, the binding signal is 30100 fluorescence intensity (a.u.).
To “TTTACAAGTGATACAACAACGTGGTTTGCATAATGCGTCACGGAGTCACCTAGTGCAG” belongs 3960 fluorescence intensity (a.u.); to “ACTGAACACGGCTCGGTCCACGTACGAAGTCTTCGCGGAGCGGAGTCACCTAGTGCAG”, 5430 fluorescence intensity (a.u.); to “CAACATTGAAAATATCAGGTTGGGGCGCATGACTGTATCACGGAGTCACCTAGTGCAG”, 5230 fluorescence intensity (a.u.).
With “TTGGGTGGGCCGTCAAACGTACGTATGTAAGCCCATGGTTCGGAGTCACCTAGTGCAG”, the binding signal was 3970 fluorescence intensity (a.u.).
In the case of “TGTAGACGGCCGGTCACACTATCTTTATGCTGAGTCATGTCGGAGTCACCTAGTGCAG”, the binding signal was 12000 fluorescence intensity (a.u.).
With “CTCCTCGTCGTCGTCGTCGTCGTCGTCGTCTCCTCGCCGCCGGAGTCACCTAGTGCAG”, the binding signal is 4430 fluorescence intensity (a.u.).
Regarding “GGGATAGAACTGGGCCTGAAGGCCTGATCTGTCAAGATATCGGAGTCACCTAGTGCAG”, the binding signal was 3400 fluorescence intensity (a.u.).
To “GAAGGCAAATGTCTTACTTGACCACCAGCTGTGGCATGTGCGGAGTCACCTAGTGCAG” belongs 3340 fluorescence intensity (a.u.); to “GCCTCCATAGGTAAGGTGTTAGTGGGAGAGAATAAGATGACGGAGTCACCTAGTGCAG”, 4670 fluorescence intensity (a.u.).
In the case of “ATTGCCACACATGACACATCTCTGACTATGTGTAATCATTCGGAGTCACCTAGTGCAG”, the binding signal is 8070 fluorescence intensity (a.u.).
Take “CGCGCGCTCGGTCCAGGCTTGAATCCCTTTGCTCCCTTCGCGGAGTCACCTAGTGCAG”: the binding signal was 3560 fluorescence intensity (a.u.).
In the case of “AGGGGAGGAGGTGACTGCCACCATGGCCTCGCCCTCCTTGCGGAGTCACCTAGTGCAG”, the binding signal was 3530 fluorescence intensity (a.u.).
For “CCTCCATCTCCATCTCCTCTTCGAGTCCTCGTCGTCGTGGCGGAGTCACCTAGTGCAG”, the binding signal is 3640 fluorescence intensity (a.u.).
With “TCCCCAGCCGCCACCCACACACAAGCGCGCCGTTGGCCGTCGGAGTCACCTAGTGCAG”, the binding signal is 3960 fluorescence intensity (a.u.).
In the case of “GCCACTAACCGCTTGATGCGTGCACGTCAGATCATATGCCCGGAGTCACCTAGTGCAG”, the binding signal is 9350 fluorescence intensity (a.u.).
In the case of “GATGGCGCAGGGGAGGAAAGCGCGTACGTACCAGCGCCTCCGGAGTCACCTAGTGCAG” it was 3260 fluorescence intensity (a.u.); in that of “GGTAGGGATTGAGGTTTGGTGGAGATTGATACAACCCCTTCGGAGTCACCTAGTGCAG”, 15000 fluorescence intensity (a.u.); in that of “AATGTCATACTGCACCGACTTTCCAGTCCAACTCAGCACACGGAGTCACCTAGTGCAG”, 5610 fluorescence intensity (a.u.).
In the case of “GCATATCGGATCATAATAAACTGTGTACGCAATCGCACCACGGAGTCACCTAGTGCAG” it was 3320 fluorescence intensity (a.u.).
Take “CCGTCATGCCGCGCGAGCGTGTGACTGTGGACTGTGGTGTCGGAGTCACCTAGTGCAG”: the binding signal is 3960 fluorescence intensity (a.u.).
As for “AAGTTCAAGGGCCTCTGGCCTCCACCTCACCAAACGCCGACGGAGTCACCTAGTGCAG”, the binding signal was 5220 fluorescence intensity (a.u.).
As for “AGCCCCATGTGCCGGCTCACACACCTGTTTTCGGTAGTCTCGGAGTCACCTAGTGCAG”, the binding signal is 12200 fluorescence intensity (a.u.).
“CTAACAAGCAAAGGCGTCAGCATGTTAAGGCTCAGAGAAACGGAGTCACCTAGTGCAG”: the binding signal was 3500 fluorescence intensity (a.u.).
In the case of “CACATGAGTCAATGACATGTGGGTCAGGATGGCATATCTCCGGAGTCACCTAGTGCAG”, the binding signal is 3420 fluorescence intensity (a.u.).
In the case of “GGTCACCTTTGACGGGTCCTACGGGATACCGTCATCGGTGCGGAGTCACCTAGTGCAG” it was 3420 fluorescence intensity (a.u.); in that of “AGGCCTTACCCAGACACGCAAGCAGTCAGTCACAACACATCGGAGTCACCTAGTGCAG”, 7160 fluorescence intensity (a.u.).
With “GCGGCAGCCTCCGATCGCGTCATCGCGCGCCACCTCGATACGGAGTCACCTAGTGCAG”, the binding signal is 8620 fluorescence intensity (a.u.).
As to “TTGTAACGAACTGGAATCAGCTAGAATGACAATATAGCACCGGAGTCACCTAGTGCAG”, the binding signal was 3270 fluorescence intensity (a.u.).
In the case of “TTATGTACAATGTATGTGGCAGGTGGCACGATTGGCAAGTCGGAGTCACCTAGTGCAG” it was 4350 fluorescence intensity (a.u.); in that of “ATAATTTCTAAAATACTTATCTTAGATACATAAAGATTATCGGAGTCACCTAGTGCAG”, 23700 fluorescence intensity (a.u.); in that of “TTGGAGTGGTGGGGATGCTGAAGTGGAACTGACCTTAACTCGGAGTCACCTAGTGCAG”, 3970 fluorescence intensity (a.u.).
To “GCCCAGACCACGCAAGCGGAGCGGTGCGTGACGGTGACCGCGGAGTCACCTAGTGCAG” belongs 4430 fluorescence intensity (a.u.); to “CTCTCCTGCTCATAGAGCGCCTTCGCTGTCGACGTCCCTCCGGAGTCACCTAGTGCAG”, 3210 fluorescence intensity (a.u.).
In the case of “TAACATGGTGATGACGCACTCATATCTGATGAAGCCACCTCGGAGTCACCTAGTGCAG” it was 9520 fluorescence intensity (a.u.); in that of “GAGCTAGCTTGTGGGGCCCACATGTCAATGATAAAGATAACGGAGTCACCTAGTGCAG”, 3580 fluorescence intensity (a.u.).
Turning to “CTAACTTCCACGTTGCATATGGTTTGCTAAAACATTTCCCCGGAGTCACCTAGTGCAG”, the binding signal was 4420 fluorescence intensity (a.u.).
Turning to “AGTTATGTTATTTTATGACGGAGGGAATAATAGAGAAATGCGGAGTCACCTAGTGCAG”, the binding signal is 5610 fluorescence intensity (a.u.).
To “TACTTGTTGACTGGATTGGAGGATGGACGGTAGTCGGTTGCGGAGTCACCTAGTGCAG” belongs 4030 fluorescence intensity (a.u.).
In the case of “TTCATTTCGTCGTTTAGCGTGCTAGTCTACTTCACCTTCCCGGAGTCACCTAGTGCAG”, the binding signal is 10400 fluorescence intensity (a.u.).

Values taken from publication PMC7819943, “Rice protein-binding microarrays: a tool to detect cis-acting elements near promoter regions in rice”.
